Data as given in PMC11277477.
Results are given in words; binding and its absence hold for the method and conditions named. Binding seen in cells or lysates may run through a third protein. Binding calls can cover weak binding; strength is not graded here.

B1: EhVps32 (protein, UniProt C4M1A5 1-204)
chain: MSWFRRNTTKQTIAKMNEQIKTMEKKEEYDRKRMEMELEKAKECMKKGDKTGAAQHLRKKKMHEKNMNETINLRMNLESQILEMESAKVKVDTARSFAAANKEMTKINKEMDAGKIEKTMDELRENNEKSHEIGDLLGEDLQDIDQGELEDDLAELEDQVLDEQEDELAELEHDLPAPKAKVTKQKVTKKTLTQEEEDELAELM
B2: EhVps23 (protein, UniProt C4LUR9 1-283)
chain: MNLSKIDLTLSTVKPYYLYYLRVRVEITSVMQYYKFSATVRTYADGIILASLVGTIPIVYRGSQFCLPLCIMYPYDYPLSPPLFFTDPTPEMEVVPGHPYAMPNIVICHPILDRWSENVNTLSVLQVFVKDFSYMPPLRMKTSVIPSYSCYFPEWSSYYSYPQNYNQPIPLNHSHQLPSISSIYATESNPSIPPPQSQQLPSFQNTMDTLFTIDGFAPFKTKENECSQSPSHKKLFTKSSGPMITDLKAFVLGKQQHMKRSLPTISQTKKYKTRTTLTPLNTK
B3: Actin (EHI_008780) (protein, UniProt C4M0P2 1-763)
chain: MNFFKKQFNGNEFMVRCQCALRRISAQQKKYQTHSKTFKKQIIELLQNNERDKAFDKCTLLVQEDYKNEALTELIDVIDELMKNSEIIGTQRICPLELKSACGAILYASPYFPDHTEMMELRNMLIDKFGKTFPEECVNSKVISPKLLSRLSSKPVDSDVVNYYLDSIAKENNLITEENKLPEENPNEMLPADASKCELSRLLDGKQNNKYTFGVLTKNVIGKIKKGGDKVEAYISGPNNTKIIGEVTDLHDGTYDIVFVPPYAGNYLIAVYVNDKQIEQIGKLHILEANSLDLNKCIIEGNGIKGGYVNEKQNFTIIAKDSSGQTINHGGEPFAAYIAGPNDVKIIGDITDLKNGQYDVSYVPPIKGNYAIAVYHNTTLVQSVFNFSIEERSTQQQFPTIQQHIQPQITKSFIPVQGKPGEHFIIDIGSCSIKSGFESVGTPSIVTPTVVGKNLHQTSGFVEQNLYVGDEAIDKRGILSLEYPMQKEPIDYNSLKSVMKHSVEVAQGHPTVVITNGLTPLQMKINTSEILFNEGVQSIRFVDEAQAISRLYNKQNCVIVNIGGMMSWVIPVINGIVYNNISQKLPIAGVKCTEILMALLSKEGITLGSTSSEKEIARQIKEATGYIQVSHNSLIQPINYSLPDGTSLTIGNSRVQCFEPLFNPQLCAMNCSGISQMIATVLRNINGCTNEIILVGGGSLIKGLKERIENDIQQLLNFKINVIAEDNRKFASWLGANLLDKENIGKIITLDTWKQEGALCLDD

What follows are binders tested against GST-EhADH recombinant protein (E. histolytica) (assay: pull-down; GST-tagged bait bound to glutathione-Sepharose (200 μg) incubated with total trophozoite lysate (2 mg), 4 h, 4 °C; bound proteins detected by western blot with specific antibodies; only the target purified).

Row | Binder | binding
1 | B1 | binds
2 | B2 | binds
3 | B3 | binds
